Hit rate of the full screen: of about 320,000 compounds, about 22,000 (6.9%) were called active. The shares of active, inactive and inconclusive entries below differ from those in the screen. Calls follow the shape of the dose curve; as a rule, active = well fitted inhibition curve with a large enough effect; inconclusive = small, poorly fitted or top-dose-only effect, or another doubt; inactive = no such curve, though single readings can be large or run the other way. Where the call is inconclusive, the potency comes from a doubtful curve fit.
assay: Primary qHTS for delayed death inhibitors of the malarial parasite plastid, 96 hour incubation; conditions: P. falciparum luciferase reporter growth; series mostly up to 28.7 µM; activity change, negative = inhibition: at the top concentration
Summary of the method: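 96 h incubation, 37 C, 5% CO2, of luciferase-reporter P. falciparum-infected RBCs (2% hematocrit, 0.05% parasitemia final) with test compounds; endpoint luminescence.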
% is scaled to controls: 0 for no effect and ±100 for the full control effect; potency is read from the fitted curve at half-maximal effect.

With CCC[C@@H]1C[C@@]1(CCC)[C@@H](NC(=O)c1ccccc1)c1ccc(C(=O)OC)cc1 as the compound, how does the Potency read?
Its Potency is inconclusive: 5.22 µM [inhibitor, partial curve, poor fit].

For Cc1ccc(/C=C/C(=O)N2CCN(S(=O)(=O)c3c(C)c(C)cc(C)c3C)CC2)o1, which Potency is on record?
Its Potency is inconclusive: 7.38 µM [inhibitor, partial curve].

With CCN(Cc1ccncc1)C(=O)c1cccc(S(=O)(=O)N2CCOCC2)c1 as the compound, how does the Potency read?
Its Potency is inconclusive: 1.04 µM [inhibitor, partial curve, poor fit].

With COc1ccc(CNC(=O)COc2cccnc2[N+](=O)[O-])cc1 as the compound, how does the “activity change, negative = inhibition” value read?
The value was inactive: 27.4%.

Which Potency does the source give for CC(C)CCn1c(N)c(C(=O)OCC2CCCO2)c2nc3ccccc3nc21 (stereo not drawn) here?
The Potency was inconclusive: 4.65 µM [inhibitor, partial curve, poor fit].

Which Potency does the source give for CCCC(=O)N1CCN(c2nc3c(OC)ccc(Cl)c3s2)CC1 here?
Its Potency is inconclusive: 13.1 µM [inhibitor, single point].

For COc1cc(C(=O)NCc2ccc(-c3nc4ccccc4o3)cc2)cc(OC)c1OC, which “activity change, negative = inhibition” value is on record?
Its value is inactive: 82.1%.

For CCOc1ccccc1N(C(=O)c1snc(C(N)=O)c1N)C(C(=O)NC1CCCC1)c1cccs1 (stereo not drawn), which Potency is on record?
Its Potency is inconclusive: 8.28 µM [inhibitor, partial curve, poor fit].

Which Potency does the source give for N#CC(Br)Br here?
The Potency was inconclusive: 2.94 µM [inhibitor, single point].

With O=C(CSc1nc(N2CCOCC2)nc(N2CCOCC2)n1)Nc1ccccc1F as the compound, how does the Potency read?
Its Potency is inconclusive: 4.15 µM [inhibitor, single point].

For Cc1ccc(S(=O)(=O)C2(C(=O)NC3CCCCC3C)CC2)cc1 (stereo not drawn), which Potency is on record?
Its Potency is inconclusive: 18.5 µM [inhibitor, single point].

With CCOc1ccccc1NC(=O)c1ccc2c(c1)C(=O)N(CC1CCCO1)C2=O (stereo not drawn) as the compound, how does the Potency read?
Its Potency is active: 14.7 µM.

With Cc1cc(SCc2ccc(F)cc2)nc(=O)[nH]1 as the compound, how does the “activity change, negative = inhibition” value read?
Its value is inactive: -12.8%.

For Cc1cc2ccccn2c1C(=O)c1nc(N2CCOCC2)ncc1Cl, which Potency is on record?
The Potency was inconclusive: 10.4 µM [inhibitor, single point].

With CCCN(C(=O)CSc1nc2cc(S(=O)(=O)N(CC)CC)ccc2o1)C1CCS(=O)(=O)C1 (stereo not drawn) as the compound, how does the Potency read?
Its Potency is active: 5.22 µM.

For CCOc1nc2cnccc2n(CC(=O)Nc2c(C)cccc2CC)c1=O, which Potency is on record?
Its Potency is inconclusive: 18.5 µM [inhibitor, single point].

With COc1ccc(S(=O)(=O)Cc2ccc(C(=O)NCc3cccnc3)o2)cc1 as the compound, how does the Potency read?
Its Potency is inconclusive: 10.4 µM [inhibitor, single point].

For CN(C)c1ccc(N=C/C=C2\N(C)c3ccccc3C2(C)C)cc1, which Potency is on record?
Its Potency is inconclusive: 4.15 µM [inhibitor, full curve, poor fit].

With O=C(CSc1nnc(-c2ccc(F)cc2)c2ccccc12)NCC1CCCO1 (stereo not drawn) as the compound, how does the Potency read?
The Potency was inconclusive: 10.4 µM [inhibitor, partial curve, poor fit].

Which Potency does the source give for COc1ccc(CNC(=O)N2CCN(c3cccc(Cl)c3)CC2)cc1OC here?
Its Potency is inconclusive: 10.4 µM [inhibitor, partial curve, poor fit].

For CCn1c(SCC(=O)c2cc(C)n(C)c2C)nnc1-c1ccccc1, which Potency is on record?
The Potency was inconclusive: 18.5 µM [inhibitor, single point].

For O=C(Nc1ccccc1)C1=C[C@H](c2ccc(C(F)(F)F)cc2)C[C@H](OCc2ccc(CO)cc2)O1, which Potency is on record?
Its Potency is inconclusive: 18.5 µM [inhibitor, partial curve, poor fit].

With COc1ccc(N2CCN(C(c3ccccc3)c3sc4nc(C)nn4c3O)CC2)cc1 (stereo not drawn) as the compound, how does the Potency read?
The Potency was inconclusive: 10.4 µM [inhibitor, single point].

Which Potency does the source give for CC(=O)C(Cc1ccccc1)NC(=O)CN1c2cccc3cccc(c23)S1(=O)=O (stereo not drawn) here?
Its Potency is inconclusive: 18.5 µM [inhibitor, single point].

With CCOC(=O)[C@H]1[C@H]2COc3ccc(Cl)cc3[C@@H]2N2C(=O)c3cc(C)ccc3NC(=O)[C@@]12C as the compound, how does the Potency read?
The Potency was inconclusive: 18.5 µM [inhibitor, single point].

With O=C(OCCN1CCCC1)C1(c2ccccc2)CCCC1 as the compound, how does the Potency read?
Its Potency is active: 0.738 µM.

With COc1cc(C(C(=O)NCc2ccccc2)N(C(=O)c2snc(C(N)=O)c2N)C2CCCC2)cc(OC)c1OC (stereo not drawn) as the compound, how does the Potency read?
Its Potency is active: 4.65 µM.

Which Potency does the source give for COc1ccc(N(CC(=O)Nc2nccs2)S(=O)(=O)c2c(C)nn(C)c2C)cc1 here?
The Potency was inconclusive: 9.28 µM [inhibitor, partial curve].

Which “activity change, negative = inhibition” value does the source give for CC(=O)c1cccc(NC(=O)C(C)OC(=O)/C=C/c2cccs2)c1 (stereo not drawn) here?
The value was inactive: 79.8%.

With O=C(Nc1ccccc1)c1ccc(NC(=O)c2cccs2)cc1 as the compound, how does the “activity change, negative = inhibition” value read?
The value was inactive: -8.55%.

Which Potency does the source give for Cc1ccc(S(=O)(=O)N2CCCCC2)cc1C(=O)NCCc1ccccc1 here?
The Potency was inconclusive: 11.7 µM [inhibitor, single point].

Which Potency does the source give for O=C(COc1ccccc1F)NCC(c1ccc(F)cc1)N1CCOCC1 (stereo not drawn) here?
The Potency was inconclusive: 18.5 µM [inhibitor, single point].

With Cn1ccc(-c2ccccc2)n1 as the compound, how does the Potency read?
The Potency was active: 1.65 µM.

For Cc1ccsc1/C=N\NC(=O)c1n[nH]c2c1CCC2, which Potency is on record?
The Potency was active: 10.4 µM.

For CN1CSC(=S)N(C)C1, which “activity change, negative = inhibition” value is on record?
Its value is inactive: 19.2%.

Which Potency does the source give for COC(=O)[C@]1(Cc2ccccc2)N[C@H](c2ccc(-c3cccc(Cl)c3)cc2)[C@@H]2C(=O)N(C)C(=O)[C@@H]21 here?
The Potency was active: 5.22 µM.

With Cc1ccc(S(=O)(=O)Cc2ccc(C(=O)N3CCN(c4ccc(F)cc4)CC3)o2)cc1 as the compound, how does the Potency read?
Its Potency is inconclusive: 8.28 µM [inhibitor, partial curve, poor fit].

With CCOC(=O)c1cc([N+](=O)[O-])sc1NC(=O)c1ccc(S(=O)(=O)N2CC3(C)CC2CC(C)(C)C3)cc1 (stereo not drawn) as the compound, how does the “activity change, negative = inhibition” value read?
The value was inactive: -12.9%.

For Cc1ccc(/C(N)=N/OC(=O)CCC2CCCCC2)cc1, which Potency is on record?
The Potency was inconclusive: 14.7 µM [inhibitor, single point].

With O=C(O)c1ccc(SCc2cnc(Cl)s2)cc1 as the compound, how does the “activity change, negative = inhibition” value read?
The value was inactive: 57.2%.

Which Potency does the source give for COC(=O)c1ccc(Nc2nnc(-c3ccc(C)c(S(=O)(=O)NCC4CCCO4)c3)c3ccccc23)cc1 (stereo not drawn) here?
Its Potency is inconclusive: 3.29 µM [inhibitor, single point].

Which Potency does the source give for CC(=O)NC(Cc1ccc(F)cc1)C(=O)O (stereo not drawn) here?
The Potency was inconclusive: 11.7 µM [inhibitor, single point].

Which “activity change, negative = inhibition” value does the source give for CC(=O)c1sc(NC(=O)C2CCCN2S(=O)(=O)c2ccccc2F)nc1C (stereo not drawn) here?
The value was inactive: 2.3%.

— PubChem BioAssay AID504834 (National Center for Advancing Translational Sciences (NCATS), 2011)
